What all share (experiment): activity assay
Series [1] concerns the target T1, Deep Vent (3'->5' exo-) DNA polymerase (DV) (UniProt Q51334).
T1 sequence (looked up, limits assumed): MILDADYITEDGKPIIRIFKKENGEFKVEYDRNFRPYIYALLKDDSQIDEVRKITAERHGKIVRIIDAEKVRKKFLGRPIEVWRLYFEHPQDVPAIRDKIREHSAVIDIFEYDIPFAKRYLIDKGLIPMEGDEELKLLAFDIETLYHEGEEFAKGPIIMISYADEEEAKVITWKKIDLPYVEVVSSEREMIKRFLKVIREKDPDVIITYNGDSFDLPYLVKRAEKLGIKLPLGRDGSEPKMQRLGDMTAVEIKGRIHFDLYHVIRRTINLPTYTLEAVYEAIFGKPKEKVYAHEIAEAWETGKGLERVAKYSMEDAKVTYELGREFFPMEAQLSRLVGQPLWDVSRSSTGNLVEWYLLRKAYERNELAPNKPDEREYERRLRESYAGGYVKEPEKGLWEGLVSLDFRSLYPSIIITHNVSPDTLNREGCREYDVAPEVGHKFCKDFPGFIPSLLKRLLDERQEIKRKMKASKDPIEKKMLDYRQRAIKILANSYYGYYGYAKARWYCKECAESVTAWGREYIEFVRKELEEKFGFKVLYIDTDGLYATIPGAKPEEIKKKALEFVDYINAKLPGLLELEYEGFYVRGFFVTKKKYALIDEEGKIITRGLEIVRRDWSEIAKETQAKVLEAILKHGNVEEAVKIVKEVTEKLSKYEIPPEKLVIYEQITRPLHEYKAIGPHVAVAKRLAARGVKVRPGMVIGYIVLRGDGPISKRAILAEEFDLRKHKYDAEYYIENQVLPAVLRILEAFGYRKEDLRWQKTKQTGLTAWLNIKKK
The conditions noted are these: 55 C, purified recombinant protein, protein details: New England Biolabs, label: 5'-32P primer.

By UniProt entry, the sequences of proteins in these tests, tags left out.
UniProt P19821, whole entry: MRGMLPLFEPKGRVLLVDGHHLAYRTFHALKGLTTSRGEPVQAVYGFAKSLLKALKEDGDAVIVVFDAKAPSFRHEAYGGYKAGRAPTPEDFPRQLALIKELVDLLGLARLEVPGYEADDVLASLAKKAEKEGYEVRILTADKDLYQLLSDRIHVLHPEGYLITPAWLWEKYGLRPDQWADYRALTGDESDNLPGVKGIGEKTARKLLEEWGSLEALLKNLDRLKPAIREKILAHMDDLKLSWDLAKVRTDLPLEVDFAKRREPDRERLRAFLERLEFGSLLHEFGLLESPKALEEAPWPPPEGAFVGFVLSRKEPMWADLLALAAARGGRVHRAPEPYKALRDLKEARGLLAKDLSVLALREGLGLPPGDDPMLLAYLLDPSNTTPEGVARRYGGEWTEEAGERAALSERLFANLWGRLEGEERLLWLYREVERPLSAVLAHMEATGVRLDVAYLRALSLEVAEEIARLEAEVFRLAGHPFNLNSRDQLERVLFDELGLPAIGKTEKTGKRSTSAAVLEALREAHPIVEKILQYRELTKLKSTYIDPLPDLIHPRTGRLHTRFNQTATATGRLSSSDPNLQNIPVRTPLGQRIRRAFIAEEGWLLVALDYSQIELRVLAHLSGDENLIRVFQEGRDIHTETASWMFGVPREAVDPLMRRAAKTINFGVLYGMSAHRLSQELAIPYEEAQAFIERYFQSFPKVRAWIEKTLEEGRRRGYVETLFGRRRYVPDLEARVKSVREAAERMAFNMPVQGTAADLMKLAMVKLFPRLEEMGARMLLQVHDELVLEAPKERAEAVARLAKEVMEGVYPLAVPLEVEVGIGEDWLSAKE

The target of series [2] is Taq DNA polymerase (UniProt P19821). As to conditions: 2'F-ara (FANA) at 100% of test segment (TTACCTTT) of template; primer extension with dNTPs; 55 C; purified recombinant protein; protein details: New England Biolabs; label: 5'-32P primer; synthetic backbone.
Series [3] has as its system Phusion High-Fidelity DNA polymerase (Ph). As to conditions: 2'F-ara (FANA) at 100% of test segment (TTACCTTT) of template; primer extension with dNTPs; two dNTPs maximally; 55 C; purified recombinant protein; protein details: Finnzymes, distributed by New England Biolabs; label: 5'-32P primer; synthetic backbone.
Series [4] has as its target T2, Bst DNA polymerase large fragment (UniProt P52026).
T2 sequence (looked up, limits assumed): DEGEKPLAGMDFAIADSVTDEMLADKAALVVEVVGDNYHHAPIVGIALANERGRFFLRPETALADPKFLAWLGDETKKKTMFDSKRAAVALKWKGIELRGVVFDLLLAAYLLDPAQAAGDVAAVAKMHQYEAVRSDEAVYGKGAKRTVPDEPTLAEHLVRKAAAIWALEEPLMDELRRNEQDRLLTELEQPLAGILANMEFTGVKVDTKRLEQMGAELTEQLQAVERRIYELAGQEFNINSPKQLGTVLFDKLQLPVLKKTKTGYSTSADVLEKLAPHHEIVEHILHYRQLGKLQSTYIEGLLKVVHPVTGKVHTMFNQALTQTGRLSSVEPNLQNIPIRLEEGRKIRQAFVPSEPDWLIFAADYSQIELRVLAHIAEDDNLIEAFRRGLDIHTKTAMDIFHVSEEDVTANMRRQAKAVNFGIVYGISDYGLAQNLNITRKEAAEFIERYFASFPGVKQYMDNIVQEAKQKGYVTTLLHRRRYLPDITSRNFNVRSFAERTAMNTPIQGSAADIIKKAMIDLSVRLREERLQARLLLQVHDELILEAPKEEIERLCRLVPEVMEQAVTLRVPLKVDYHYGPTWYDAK
As to conditions: 2'F-ara (FANA) at 100% of test segment (TTACCTTT) of template; primer extension with dNTPs; full-length product; 55 C; purified recombinant protein; protein details: New England Biolabs; label: 5'-32P primer; synthetic backbone.

Series [5] has as its target T3, 9°Nm DNA polymerase (9N) (UniProt Q56366).
T3 sequence (looked up, limits assumed): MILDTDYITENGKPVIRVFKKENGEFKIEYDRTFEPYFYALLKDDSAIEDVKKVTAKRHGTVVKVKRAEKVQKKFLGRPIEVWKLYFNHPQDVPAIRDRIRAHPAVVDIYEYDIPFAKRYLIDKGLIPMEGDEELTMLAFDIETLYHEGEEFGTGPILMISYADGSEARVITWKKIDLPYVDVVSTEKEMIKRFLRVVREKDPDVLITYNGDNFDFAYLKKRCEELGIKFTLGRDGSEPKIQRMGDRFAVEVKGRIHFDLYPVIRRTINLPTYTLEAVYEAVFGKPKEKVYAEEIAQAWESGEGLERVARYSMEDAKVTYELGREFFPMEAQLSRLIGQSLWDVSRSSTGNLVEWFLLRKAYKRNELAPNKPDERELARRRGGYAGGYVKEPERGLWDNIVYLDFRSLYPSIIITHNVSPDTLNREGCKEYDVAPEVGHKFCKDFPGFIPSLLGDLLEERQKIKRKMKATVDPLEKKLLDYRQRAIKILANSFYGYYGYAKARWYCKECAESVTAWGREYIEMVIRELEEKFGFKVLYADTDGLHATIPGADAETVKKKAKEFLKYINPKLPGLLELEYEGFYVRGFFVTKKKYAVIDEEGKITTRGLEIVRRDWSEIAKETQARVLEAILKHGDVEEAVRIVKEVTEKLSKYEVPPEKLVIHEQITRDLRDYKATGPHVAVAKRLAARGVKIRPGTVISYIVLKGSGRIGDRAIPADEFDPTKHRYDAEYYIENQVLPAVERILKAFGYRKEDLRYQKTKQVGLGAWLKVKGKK
The conditions noted are these: apparent fidelity, 2'F-araCTP dropout; dCTP dropout 82%; 55 C; purified recombinant protein; protein details: New England Biolabs; label: 5'-32P primer.

For part of these data: Weaker means in comparison with the reference protein, sequence or condition of that experiment. For part of these data: Tags and fusion partners may be left off the protein sequences shown. For part of these data: The exact form of at least one protein or probe is not confirmed.

For “TAATACGACTCACTATA / AAATCCCGAGAAGAGAGTATAGTGAGTCGTATTA [PF20/PF43 primer-template]”, in series [1] (apparent fidelity, 2'F-araGTP dropout, dGTP dropout 62%), the activity on this sequence was greater than 99%. In the case of “TAATACGACTCACTATA / AGAGCCTGAGAAGAGAGTATAGTGAGTCGTATTA [PF20/PF41 primer-template]”, the activity on this sequence in series [1] (apparent fidelity, 2'F-araATP dropout, dATP dropout 1%) is greater than 99%. With “TAATACGACTCACTATA / TTACCTTTCTCTTCTCCCTATAGTGAGTCGTATTA [PF20/PF31 primer-FANA template]”, the “activity on this sequence” value is listed as “less active” in series [1] (2'F-ara (FANA) at 100% of test segment (TTACCTTT) of template, primer extension with dNTPs, up to 6 of 8 dNTPs, synthetic backbone); “less active” in series [2]; “less active” in series [3]; “active” in series [4]. With “TAATACGACTCACTATA / TTTACCGCTCTTCTCCCTATAGTGAGTCCTATTA [PF20/PF23 primer-template]”, the activity on this sequence in series [5] was 43%; in series [1] (apparent fidelity, 2'F-araCTP dropout, dCTP dropout 3%) it was 50%.

As to “TAATACGACTCACTATA / TTTGCCACTCTTCTCCCTATAGTGAGTCGTATTA [PF20/PF21 primer-template]”, in series [1] (apparent fidelity, 2'F-araTTP dropout, dTTP dropout 19%), the activity on this sequence amounted to 3%.
